Reference: ChEMBL document CHEMBL1130002, “Synthesis and biological evaluation of the 1,5-diarylpyrazole class of cyclooxygenase-2 inhibitors: identification of 4-[5-(4-methylphenyl)-3-(trifluoromethyl)-1H-pyrazol-1-yl]benze nesulfonamide (SC-58635, celecoxib)” (J Med Chem, 1997)

Columns and labels:
Experiment in all cases: animal or person
[1] = organism: Rattus norvegicus; assay type: functional
[2] = organism: Rattus norvegicus; conditions: Foot pad, read-out: Inhibition
[3] = organism: Rattus norvegicus; assay type: functional; remark: listed apart in the source
[4] = organism: Rattus norvegicus; assay type: functional; remark: listed apart in the source

Compound	ED50 [1] [mg/kg]	inhibition in vivo at 30 mg/kg [2] [%]	ED50 [3] [mg/kg]	ED50 [4] [mg/kg]
NS(=O)(=O)c1ccc(-n2nc(C(F)(F)F)cc2-c2ccccc2)cc1	0.29	50		
NS(=O)(=O)c1ccc(-n2ncc(Cl)c2-c2ccccc2)cc1	0.33		9.2	32.3
